The source of these data is PMC5059642.

The chains behind the UniProt entries cited, without tags or fusion partners.
UniProt P0DMV8: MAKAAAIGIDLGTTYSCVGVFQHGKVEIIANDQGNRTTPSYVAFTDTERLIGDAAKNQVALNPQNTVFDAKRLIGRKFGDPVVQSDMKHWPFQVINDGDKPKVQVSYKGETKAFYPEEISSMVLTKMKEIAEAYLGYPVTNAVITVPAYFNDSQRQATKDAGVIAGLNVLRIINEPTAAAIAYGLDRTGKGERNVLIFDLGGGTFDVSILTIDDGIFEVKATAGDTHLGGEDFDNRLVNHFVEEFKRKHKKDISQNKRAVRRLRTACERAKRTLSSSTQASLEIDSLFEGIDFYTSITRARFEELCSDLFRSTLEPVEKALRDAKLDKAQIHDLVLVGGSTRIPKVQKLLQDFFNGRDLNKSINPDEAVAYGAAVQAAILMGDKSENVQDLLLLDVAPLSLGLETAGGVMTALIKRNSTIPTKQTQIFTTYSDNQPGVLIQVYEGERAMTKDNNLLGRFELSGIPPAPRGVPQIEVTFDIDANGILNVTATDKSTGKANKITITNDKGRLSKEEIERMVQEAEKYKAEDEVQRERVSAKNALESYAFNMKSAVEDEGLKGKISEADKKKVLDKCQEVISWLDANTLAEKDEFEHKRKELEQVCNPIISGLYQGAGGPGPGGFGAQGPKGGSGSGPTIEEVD

The assay deals with T1, FLAG-HA tagged ARD1 (human) (UniProt P41227).
T1 sequence: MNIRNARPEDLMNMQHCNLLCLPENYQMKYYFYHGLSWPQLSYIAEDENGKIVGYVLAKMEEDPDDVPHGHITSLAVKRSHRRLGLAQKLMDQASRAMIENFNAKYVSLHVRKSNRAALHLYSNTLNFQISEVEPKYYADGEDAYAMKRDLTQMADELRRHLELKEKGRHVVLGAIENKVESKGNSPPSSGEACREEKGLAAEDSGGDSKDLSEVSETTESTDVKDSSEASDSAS
The assay is described as follows: affinity purification with mass spectrometry; FLAG-HA tagged ARD1 in HEK293T; anti-M2 resin, elution by 3xFLAG peptide, second precipitation with anti-HA antibody; SDS-PAGE and silver staining.

These are yes or no findings as the source states them, for the method shown. Binding seen in cells or lysates may run through a third protein. A yes stands for co-enrichment or nearness to the bait. Other partners may have been found. Sequences can lack the tags named with a protein.

Regarding “Hsp70 (Hsp72/HSPA1A), endogenous (from UniProt P0DMV8 1-641)”, the binding result was “binds”.
